The experiment concerns K562. The experiment is described as follows: cells. The conditions noted are these: Homo sapiens, K562, 24 h.

By IC50 is commonly meant the point on the concentration scale where inhibition reaches its midpoint. A higher IC50 goes with weaker potency in that assay. `COc1cccc2c1C(=O)c1c(O)c3c(c(O)c1C2=O)C[C@@](O)(C(=O)CO)C[C@@H]3O[C@H]1C[C@H](N)[C@H](O)[C@H](C)O1` [DOXORUBICIN] gave an IC50 of 2500 nM.
